Results are given in words; binding and its absence hold for the method and conditions named. In cells and extracts the contact can be indirect. Some results given as binding are weak or reduced against the parent protein; the word gives no strength. For some of these results: Where a sequence is shown, tags or fusion partners need not be part of it.

The chains behind the UniProt entries cited, without tags or fusion partners.
UniProt Q6PGQ7: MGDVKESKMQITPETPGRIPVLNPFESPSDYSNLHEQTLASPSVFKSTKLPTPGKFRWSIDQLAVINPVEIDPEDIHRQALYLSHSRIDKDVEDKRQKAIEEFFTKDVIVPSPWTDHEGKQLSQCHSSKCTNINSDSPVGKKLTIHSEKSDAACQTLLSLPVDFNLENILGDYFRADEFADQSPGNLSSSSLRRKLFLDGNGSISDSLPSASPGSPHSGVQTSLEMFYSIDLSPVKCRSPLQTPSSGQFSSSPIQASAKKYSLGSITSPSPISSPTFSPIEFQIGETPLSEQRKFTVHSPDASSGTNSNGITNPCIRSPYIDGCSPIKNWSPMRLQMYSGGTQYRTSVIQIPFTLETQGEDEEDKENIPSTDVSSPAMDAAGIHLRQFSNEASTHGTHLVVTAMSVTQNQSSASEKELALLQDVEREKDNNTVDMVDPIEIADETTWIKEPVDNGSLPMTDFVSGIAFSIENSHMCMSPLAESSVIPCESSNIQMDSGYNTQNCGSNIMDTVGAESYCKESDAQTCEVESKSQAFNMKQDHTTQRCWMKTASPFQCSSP

The target in test [1] is PLK1-myc Y445F (UniProt P53350). Nature of the test: co-IP; overexpressed PLK1-myc WT or Y445F; RO3306 arrested G2 cells and nocodazole arrested M-phase cells; endogenous partners blotted in the eluates; 20 mM HEPES-KOH pH 7.9, 200 mM NaCl, 10% glycerol, 0.1% Triton X-100, 1 mM DTT, 4 °C.
Test [2] addresses Polo-like kinase 1 (PLK1), endogenous (human (endogenous in 293T)) (UniProt P53350). Nature of the test: co-IP; Myc-tagged EYA1 or EYA3 and PLK1 in G2 arrested cells (Supplementary Fig. 1H); which partner was precipitated is not told.

For “BORA, endogenous (from UniProt Q6PGQ7 1-559)”, the binding result in test [1] is on record as “binds”.

B1: Myc-tagged EYA3 (protein, UniProt Q99504 1-573)
chain: MEEEQDLPEQPVKKAKMQESGEQTISQVSNPDVSDQKPETSSLASNLPMSEEIMTCTDYIPRSSNDYTSQMYSAKPYAHILSVPVSETAYPGQTQYQTLQQTQPYAVYPQATQTYGLPPFGALWPGMKPESGLIQTPSPSQHSVLTCTTGLTTSQPSPAHYSYPIQASSTNASLISTSSTIANIPAAAVASISNQDYPTYTILGQNQYQACYPSSSFGVTGQTNSDAESTTLAATTYQSEKPSVMAPAPAAQRLSSGDPSTSPSLSQTTPSKDTDDQSRKNMTSKNRGKRKADATSSQDSELERVFLWDLDETIIIFHSLLTGSYAQKYGKDPTVVIGSGLTMEEMIFEVADTHLFFNDLEECDQVHVEDVASDDNGQDLSNYSFSTDGFSGSGGSGSHGSSVGVQGGVDWMRKLAFRYRKVREIYDKHKSNVGGLLSPQRKEALQRLRAEIEVLTDSWLGTALKSLLLIQSRKNCVNVLITTTQLVPALAKVLLYGLGEIFPIENIYSATKIGKESCFERIVSRFGKKVTYVVIGDGRDEEIAAKQHNMPFWRITNHGDLVSLHQALELDFL
Turning to B1, the binding result in test [2] is listed as “no binding”.

B2: Myc-tagged EYA1 (protein, UniProt Q99502 1-592)
chain: MEMQDLTSPHSRLSGSSESPSGPKLGNSHINSNSMTPNGTEVKTEPMSSSETASTTADGSLNNFSGSAIGSSSFSPRPTHQFSPPQIYPSNRPYPHILPTPSSQTMAAYGQTQFTTGMQQATAYATYPQPGQPYGISSYGALWAGIKTEGGLSQSQSPGQTGFLSYGTSFSTPQPGQAPYSYQMQGSSFTTSSGIYTGNNSLTNSSGFNSSQQDYPSYPSFGQGQYAQYYNSSPYPAHYMTSSNTSPTTPSTNATYQLQEPPSGITSQAVTDPTAEYSTIHSPSTPIKDSDSDRLRRGSDGKSRGRGRRNNNPSPPPDSDLERVFIWDLDETIIVFHSLLTGSYANRYGRDPPTSVSLGLRMEEMIFNLADTHLFFNDLEECDQVHIDDVSSDDNGQDLSTYNFGTDGFPAAATSANLCLATGVRGGVDWMRKLAFRYRRVKEIYNTYKNNVGGLLGPAKREAWLQLRAEIEALTDSWLTLALKALSLIHSRTNCVNILVTTTQLIPALAKVLLYGLGIVFPIENIYSATKIGKESCFERIIQRFGRKVVYVVIGDGVEEEQGAKKHAMPFWRISSHSDLMALHHALELEYL
For the molecule B2, the binding entry in test [2] is reported as “binds”.

B3: Aurora kinase A (AURKA), endogenous (protein, UniProt O14965 1-403)
chain: MDRSKENCISGPVKATAPVGGPKRVLVTQQFPCQNPLPVNSGQAQRVLCPSNSSQRIPLQAQKLVSSHKPVQNQKQKQLQATSVPHPVSRPLNNTQKSKQPLPSAPENNPEEELASKQKNEESKKRQWALEDFEIGRPLGKGKFGNVYLAREKQSKFILALKVLFKAQLEKAGVEHQLRREVEIQSHLRHPNILRLYGYFHDATRVYLILEYAPLGTVYRELQKLSKFDEQRTATYITELANALSYCHSKRVIHRDIKPENLLLGSAGELKIADFGWSVHAPSSRRTTLCGTLDYLPPEMIEGRMHDEKVDLWSLGVLCYEFLVGKPPFEANTYQETYKRISRVEFTFPDFVTEGARDLISRLLKHNPSQRPMLREVLEHPWITANSSKPSNCQNKESASKQS
For B3, in test [1], the binding result is recorded as “binds”.

The values above are taken from publication PMC10869800.
